These results are taken from US6258583.

For at least one entry, the source does not settle the construct or the ends of the probe.

The test system of the series is Hpy188I restriction endonuclease (Helicobacter pylori J188). The experiment in a line: enzyme reaction in vitro. To be noted: cleaves between N and G on both strands giving one base 3' extension; 37 C, 30 min, Mg2+; purified native protein; label: 33P primer extension product; only the motif is given.

Take “TCGGA (double strand) [M13mp18 Hpy188I site at position 1353 (N is G)]”: the “activity on this sequence” value was “active”.
